The shares of active, inactive and inconclusive entries below differ from those in the screen. Potencies of inconclusive entries are doubtful fits and often do not repeat. For some of these results: A note “side channel” means that the fit belongs to a control or component signal, not to the main read-out. The source made the active and inactive calls. Unless noted, calls come from the whole dose curve; as a rule, active = well fitted curve in the direction sought with a large enough effect; inconclusive = small, poorly fitted or top-dose-only effect, or another doubt; inactive = no such curve, though single readings can be large; an effect the other way counts as inactive or inconclusive.
test system: not listed separately; test: qHTS screen for small molecules that inhibit ELG1-dependent DNA repair: Hit Confirmation with MMS Viability (AID 624251); conditions: Cell viability with MMS; series mostly up to 46.1 µM; activity change, negative = viability loss: at the top concentration;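 note: ELG1-luc HEK293T cells co-treated with 10 µM MMS; nearly all actives have a fitted effect of over 60% in size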; for activity change, negative = viability loss: % is set by controls: 0 for no effect and ±100 for the full control effect
Method in brief: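 Luminescent ATP read-out (CellTiter-Glo) gives viability of ELG1-luc HEK293T cells exposed to compounds together with 10 µM methyl methanesulfonate for 16 h.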
Potency is the fitted concentration of half-maximal effect.

Amino acid sequences for entries named in this document (tags omitted). A change or cut given only in a name is not applied to a line headed by its entry.
UniProt Q99816: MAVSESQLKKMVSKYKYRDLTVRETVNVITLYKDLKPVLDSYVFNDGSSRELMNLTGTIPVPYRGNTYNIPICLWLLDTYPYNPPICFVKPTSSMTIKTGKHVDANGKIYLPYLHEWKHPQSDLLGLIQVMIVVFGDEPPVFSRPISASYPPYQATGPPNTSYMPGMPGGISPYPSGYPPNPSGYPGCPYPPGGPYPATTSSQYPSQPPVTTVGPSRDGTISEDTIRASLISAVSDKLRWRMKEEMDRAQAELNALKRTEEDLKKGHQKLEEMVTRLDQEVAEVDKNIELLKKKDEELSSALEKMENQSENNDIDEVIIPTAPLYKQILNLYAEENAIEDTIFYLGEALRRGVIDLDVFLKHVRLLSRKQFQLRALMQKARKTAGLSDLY

Row | SMILES | Potency | activity change, negative = viability loss
1 | CC(=O)[O][Sn]([c]1ccccc1)([c]1ccccc1)[c]1ccccc1 | active: 0.281 µM | 
2 | COc1ccccc1OP(=O)(Nc1cccnc1)Oc1ccccc1OC |  | inactive: -16.1%
3 | CCCCN=C[C@]12CCC(O)CC1(O)CCC1[C@@H]2CC[C@]2(C)[C@H](C3C=CC(=O)O3)CCC12O (stereo partly specified) | active: 1.99 µM | 
4 | C[C@@H]1C[C@H]2CC[C@H](O2)[C@H](C)C(=O)O[C@@H](C)C[C@@H]2CC[C@@H](O2)[C@@H](C)C(=O)O[C@H](C)C[C@H]2CC[C@H](O2)[C@H](C)C(=O)O[C@@H](C)C[C@@H]2CC[C@@H](O2)[C@@H](C)C(=O)O1 | active: 0.0997 µM | 
5 | COc1ccc(C(Nc2ccccc2)P(=O)(Oc2ccccc2)Oc2ccccc2)cc1 (stereo unspecified) | inconclusive: 14.1 µM [cytotoxic, partial curve] | 

molecular target: Tumor susceptibility gene 101 protein (Homo sapiens) (UniProt Q99816); test: qHTS Assay for Iinhibitors of HIV-1 Budding by Blocking the Interaction of PTAP/TSG101: Hit Validation (AID 651600); conditions: PTAP peptide/TSG101 UEV interaction, biochemical assay; series mostly up to 57.5 µM; activity change, negative = inhibition: at the top concentration; note: nearly all actives have a fitted effect of over 70% in size; for activity change, negative = inhibition: % is set by controls: 0 for no effect and ±100 for the full control effect
Method in brief: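 Tsg101 binding domain 10 uM + FITC-PTAP peptide 50 nM (final), 10 mM HEPES pH 7.5/0.15 M NaCl/0.01% Tween 20/3 mM EDTA/0.1 mM TCEP; 20 min RT; FP read, FITC filters.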

Row | SMILES | Potency | activity change, negative = inhibition
6 | COC(=O)[C@@]1(C#N)[C@@H]2C=CC(C(C)=O)=CN2[C@@H](C(N)=O)[C@@H]1c1ccc(F)cc1 | inconclusive: 32.6 µM [inhibitor, single point] | 
7 | CCOC(=O)[C@]1(C#N)[C@@H]2C=CC(C(C)=O)=CN2[C@@H](C(N)=O)[C@@H]1c1ccsc1 | inconclusive: 9.19 µM [inhibitor, partial curve] | 
8 | CCN(CC)c1ccc(N=Cc2c(O)n(-c3ccc(OC)cc3)c(=O)[nH]c2=O)cc1 | inconclusive: 16.3 µM [inhibitor, partial curve] | 
9 | N#CC(C#N)=Cc1ccc(-c2ccccc2F)o1 | inconclusive: 20.6 µM [inhibitor, partial curve] | 
10 | COc1ccc(N2C(=O)NC(=O)/C(=C\c3cn(C)c4ccccc34)C2=O)cc1 |  | inactive: -1.68%
11 | CN1CCC2(CC1)C(C#N)=C(N)NC(S)=C2C#N | inconclusive: 20.6 µM [inhibitor, partial curve] | 
12 | O=C1NC(=O)N(c2ccc(F)cc2)C(=O)/C1=C/c1ccc2c(c1)CCCN2Cc1ccccc1 | inconclusive: 46.1 µM [inhibitor, single point] | 
13 | Nc1cc2nc3ccccc3nc2cc1N | inconclusive: 11.6 µM [inhibitor, full curve] | 
14 | C#CCN1C(=O)S/C(=C\c2ccc(N3CCOCC3)cc2C)C1=O | inconclusive: 16.3 µM [inhibitor, partial curve, poor fit] | 

test system: not listed separately; test: qHTS assay for small molecule agonists of the antioxidant response element (ARE) signaling pathway (AID 651741; active = well fitted activation curve with a large enough effect in the signal ratio; inconclusive = small, poorly fitted or top-dose-only effect, or effect the other way, or a change in a side signal; the % refers to the signal ratio; for activation: % of control where 0% means no effect); conditions: HepG2 ARE-bla reporter, beta-lactamase FRET ratio, 16 h; activation: at 96 µM (top of the series) unless noted
Method in brief: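 Quantitative HTS in HepG2 cells stably expressing an ARE-beta-lactamase reporter; 16 h compound exposure at 37 C, followed by 2 h room-temperature incubation with LiveBLAzer B/G FRET substrate and fluorescence measurement.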

Row | SMILES | activation | Potency
15 | Cc1ccc2ccccc2c1C | inconclusive: 10.7% | 
16 | O=[N+]([O-])c1ccccc1O | inconclusive: 10.9% | 
17 | Cc1c(N)cccc1[N+](=O)[O-] |  | inconclusive: 75 µM [activator, partial curve, poor fit]
18 | O=NO | inconclusive: 10.7% | inconclusive: 75 µM [activator, single point]
19 | Cc1ccc(N)c([N+](=O)[O-])c1 | inconclusive: 12.7% | inconclusive: 18.8 µM [side channel, rising, partial curve, poor fit]
20 | Nc1ccc(Cl)cc1[N+](=O)[O-] |  | inconclusive: 59.6 µM [activator, single point]
21 | CCNc1nc(Cl)nc(NC(C)(C)C#N)n1 | inconclusive: -0.66% | 
22 | CCc1ccccc1 |  | inconclusive: 0.0335 µM [activator, full curve, poor fit]
23 | Cc1cccc([N+](=O)[O-])c1 |  | inactive
24 | CC#N |  | inconclusive: 37.6 µM [side channel, rising, partial curve, poor fit]
25 | ClCc1ccccc1Cl | inconclusive: 2.48% | 
26 | COS(C)(=O)=O |  | active: 42.2 µM
27 | CCCCCCCCCCCCCCCC(=O)OC(C)C |  | active: 54.5 µM
28 | CCC(C)(CC)c1cc(NC(=O)c2c(OC)cccc2OC)on1 |  | inconclusive: 77 µM [activator, single point]
29 | Cc1cccc(C)c1O |  | inconclusive: 0.0188 µM [side channel, falling, full curve, poor fit]

2 entries from above, tab-delimited:
Row	SMILES	activation	Potency
23	Cc1cccc([N+](=O)[O-])c1		inactive
26	COS(C)(=O)=O		active: 42.2 µM

Reference: PubChem BioAssay (NCATS)
